Measurements from publication PMC5431093, “A HAND to TBX5 Explains the Link Between Thalidomide and Cardiac Diseases” (Scientific Reports, 2017).
These are yes or no findings as the source states them, for the method shown. Binding calls can cover weak binding; strength is not graded here.

Amino acid sequences for entries named in this document (tags omitted). A change or cut given only in a name is not applied to a line headed by its entry.
UniProt Q61039: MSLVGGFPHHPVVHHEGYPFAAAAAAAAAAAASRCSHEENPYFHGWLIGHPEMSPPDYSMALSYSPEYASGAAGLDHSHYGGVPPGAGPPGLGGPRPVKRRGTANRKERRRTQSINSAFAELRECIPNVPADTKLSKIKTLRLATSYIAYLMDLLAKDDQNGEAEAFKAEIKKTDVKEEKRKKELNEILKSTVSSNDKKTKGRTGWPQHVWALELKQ

Biological target: T1, E47/Pan protein (UniProt P15923)
T1 sequence: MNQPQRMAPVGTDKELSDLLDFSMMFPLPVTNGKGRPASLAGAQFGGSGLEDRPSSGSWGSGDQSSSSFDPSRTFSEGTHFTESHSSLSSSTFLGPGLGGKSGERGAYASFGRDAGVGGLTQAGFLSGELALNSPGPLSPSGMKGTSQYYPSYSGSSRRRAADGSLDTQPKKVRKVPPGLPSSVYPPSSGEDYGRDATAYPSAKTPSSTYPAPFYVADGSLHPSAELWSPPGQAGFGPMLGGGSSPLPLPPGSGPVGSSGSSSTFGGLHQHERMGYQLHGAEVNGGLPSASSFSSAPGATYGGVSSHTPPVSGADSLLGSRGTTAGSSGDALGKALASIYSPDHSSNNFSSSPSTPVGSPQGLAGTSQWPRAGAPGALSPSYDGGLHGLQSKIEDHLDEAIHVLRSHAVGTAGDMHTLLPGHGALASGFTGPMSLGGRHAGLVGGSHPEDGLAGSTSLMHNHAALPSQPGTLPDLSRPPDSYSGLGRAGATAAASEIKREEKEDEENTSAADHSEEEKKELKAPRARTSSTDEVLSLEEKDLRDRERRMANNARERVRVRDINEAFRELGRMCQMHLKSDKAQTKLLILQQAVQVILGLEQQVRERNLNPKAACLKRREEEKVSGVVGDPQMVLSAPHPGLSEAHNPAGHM
Assay: native gel or EMSA; nuclear extracts of HEK293 cells with HAND2 (wild type or G202V) mixed with the same amount of E47/Pan extract, radiolabelled consensus HAND binding site probe; complex seen on DNA

binding: binds
Substance: Flag-tagged HAND2 p.G202V variant (from UniProt Q61039)
